{
  "source": "paper PMC4718940",
  "about": "“Preclinical studies of 5-fluoro-2′-deoxycytidine and tetrahydrouridine in pediatric brain tumors” (Journal of Neuro-Oncology, 2015)",
  "key": {"[1]": {"tested_on": "mouse CPC neurospheres (CPC300)", "test": "72 h dose response, CellTiter-Glo, mouse CPC neurospheres", "type": "cell-based", "conditions": "72 hr treatment, 384-well", "experimental": "(§1) In the Discovery Phase, the initial studies included the screen of a library of 9 compounds against epigenetic regulators at a single concentration and a dose-response on G3 MB, EP, and CPC tumor cells, as well as HEPG2 and BJ (Fig. 1). The library and dose response studies are described in the Supplementary Material.\n(§2) Briefly, cells (see Supplementary Table S2 for cell identity) were plated in 384-well plates (Corning) in 30 µL of supplemented neurobasal medium by using an automated plate filler (Wellmate, Matrix). After 24 hr, 28 nL of compound was transferred via pin tool, resulting in a final drug concentration of approximately 4 nM to 10 µM. After 72 hr of treatment, CellTiter-Glo reagent (Promega) was added, and the luminescence signal was measured using an automated Envision plate reader (Perkin-Elmer). Luminescence data were normalized by log10-transformation prior to calculating the percentage of inhibition using the following equation: 100 × (negative control mean − compound value)/(negative control mean − positive control mean). Our negative control represents cells treated with 0.1% DMSO with 0% inhibition. […] High through put assay data were analyzed by using our in-house Robust Interpretation of Screening Experiments (RISE) application that was written in Pipeline Pilot (Accelrys, v. 8.5) and R (R Development Core Team)."}, "mouse EP neurospheres": {"tested_on": "mouse EP neurospheres", "test": "72 h dose response, CellTiter-Glo, mouse EP neurospheres", "type": "cell-based", "conditions": "72 hr treatment, 384-well", "experimental": "as §1, §2"}},
  "data": [
    {"smiles": "O=C(CCCCCCC(=O)Nc1ccccc1)NO", "note": "[SAHA (Vorinostat), Vorinostat]", "values": [
      {"measurement": "EC50", "setting": "[1]", "value": 6.7, "unit": "µM"},
      {"measurement": "EC50", "setting": "mouse EP neurospheres", "value": 6.3, "unit": "µM"}
    ]}
  ]
}
